Measured values: patent publication US20240293457A1
Positions count from the first letter of the chain named. No constants are given. Whether binding was seen depends on the method and setting. Some entries that bind do so weakly or less than the wild type.

B1: Hz25C7 (antibody, human IgG1, kappa, V domains shown)
VH: EVQLVESGGGLVQPGGSLRLSCAASGFTFSDYGMAWVRQAPGKGLEWVAFINNLAYSIYYVDTVTGRFTISRDNAKNSLYLQMNSLRAEDTAVYYCARFTTGNVMDYWGQGTLVTVSS
VL: DIVMTQSPDSLAVSLGERATINCKSSQSLLQGGNQKNYLTWYQQKPGQPPKLLIYWSSTRESGVPDRFSGSGSGTDFTLTISSLQAEDVAVYYCQNSYSYPLTFGGGTKVEIKR
B2: Hz3G3 (antibody, human IgG1, kappa, V domains shown)
VH: QVQLVQSGAEVKKPGASVKVSCKASGYSFTTYWMHWVRQAPGQGLEWMGLIDPSDSETRLNQKFKDRVTMTVDTSTSTVYMELSSLRSEDTAVYYCASNRWLLGWGQGTLVTVSS
VL: B1 VL with Q31N, G32S, S57A, S97D, G106Q, V110L
B3: Hz69H9 (antibody, human IgG1, kappa, V domains shown)
VH: QVQLVQSGAEVKKPGSSVKVSCKASGYSFSSYNIHWVRQAPGQGLEWMGYIAPFQGDSRYNQKFKGRVTITADKSTSTAYMELSSLRSEDTAVYYCARLNRGNSLDYWGQGTLVTVSS
VL: B1 VL with L30F, Q31N, G32S, K36R, S57A, S97N, S99I
B4: Hz38F8 (antibody, human IgG1, kappa, V domains shown)
VH: EVQLVESGGGLVQPGGSLRLSCAASGFSFSDYGMHWVRQAPGKGLEWVSYINSGSRTLYYADTVKGRFTISRDNAKNSLYLQMNSLRDEDTAVYYCARNAYYGNAMDYWGQGTLVTVSS
VL: B1 VL with Q31N, G32S, K36R, E61G, S97V, S99Y, L102F, G106Q, K109R, V110L
B5: Hz14A5 (antibody, human IgG1, kappa, V domains shown)
VH: QVQLQESGPGLVKPSETLSLTCTVSGFSLNSYGVGWIRQPPGKGLEWIGVIWGDVSTNYHSVLISRVTISKDTSKNQVSLKLSSVTAADTAVYYCARITRGNAMDYWGQGTLVTVSS
VL: B1 VL with Q31N, G32S, K36R, S57A, E61K, S97N, S99L, Y100F
B6: Hz46F6 (antibody, human IgG1, kappa, V domains shown)
VH: QVQLQESGPGLVKPSETLSLTCTVSGFSLTDYGVSWIRQPPGKGLEWIGVMWGGGNTYYNSALKSRVTISVDTSKNQFSLKLSSVTAADTAVYYCARQRYGGNAMDYWGQGTLVTVSS
VL: B1 VL with Q31N, G32S, K36R, S57A, S99F, L102F

molecular target: human Claudin 18.2 protein (P50251802, GenScript) (human) (UniProt P56856); experiment: SPR (Biacore T200), human Claudin18.2 on CM5 chip; this antibody is one of the two exceptions (not superior to Zmab)

**Q.** For B1, which binding is on record?
**A.** binds

**Q.** Which binding does the source give for B2 here?
**A.** binds

molecular target: human Claudin 18.2 protein (P50251802, GenScript) (human) (UniProt P56856); experiment: SPR (Biacore T200), human Claudin18.2 on CM5 chip

**Q.** For B3, which binding is on record?
**A.** binds

**Q.** How did the binding turn out when B4 was run?
**A.** binds

**Q.** B5 was tested. Which binding did it give?
**A.** binds

**Q.** B6 was tested. Which binding did it give?
**A.** binds
